Results from the supplement of paper PMC10849652.
The other results are listed elsewhere or left out.

The chains behind the UniProt entries cited, without tags or fusion partners. Where a name states a change or a piece, a line headed by the entry shows the natural chain unless it says otherwise.
UniProt Q8N1G2: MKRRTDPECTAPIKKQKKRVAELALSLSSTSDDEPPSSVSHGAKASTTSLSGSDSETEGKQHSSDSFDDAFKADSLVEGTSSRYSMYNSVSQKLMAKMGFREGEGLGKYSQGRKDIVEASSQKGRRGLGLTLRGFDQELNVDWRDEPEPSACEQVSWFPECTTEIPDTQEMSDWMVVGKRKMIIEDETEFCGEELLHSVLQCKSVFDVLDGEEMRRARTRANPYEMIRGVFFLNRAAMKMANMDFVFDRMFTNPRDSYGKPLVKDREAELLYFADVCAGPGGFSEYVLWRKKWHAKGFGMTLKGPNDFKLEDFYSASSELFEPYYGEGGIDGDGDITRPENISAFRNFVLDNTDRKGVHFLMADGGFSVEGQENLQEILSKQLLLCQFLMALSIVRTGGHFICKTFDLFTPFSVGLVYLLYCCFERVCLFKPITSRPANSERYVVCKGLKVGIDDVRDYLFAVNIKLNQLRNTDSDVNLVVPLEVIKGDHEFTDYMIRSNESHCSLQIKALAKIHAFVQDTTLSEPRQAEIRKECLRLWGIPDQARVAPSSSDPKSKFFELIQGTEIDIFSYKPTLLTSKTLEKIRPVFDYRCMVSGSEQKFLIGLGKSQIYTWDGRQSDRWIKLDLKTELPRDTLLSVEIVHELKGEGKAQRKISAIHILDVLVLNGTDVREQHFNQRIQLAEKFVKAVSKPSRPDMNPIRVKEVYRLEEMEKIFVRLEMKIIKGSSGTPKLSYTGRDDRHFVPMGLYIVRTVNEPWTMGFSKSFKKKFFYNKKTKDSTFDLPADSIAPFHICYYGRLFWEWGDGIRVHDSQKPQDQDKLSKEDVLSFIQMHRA
UniProt Q9HAW4: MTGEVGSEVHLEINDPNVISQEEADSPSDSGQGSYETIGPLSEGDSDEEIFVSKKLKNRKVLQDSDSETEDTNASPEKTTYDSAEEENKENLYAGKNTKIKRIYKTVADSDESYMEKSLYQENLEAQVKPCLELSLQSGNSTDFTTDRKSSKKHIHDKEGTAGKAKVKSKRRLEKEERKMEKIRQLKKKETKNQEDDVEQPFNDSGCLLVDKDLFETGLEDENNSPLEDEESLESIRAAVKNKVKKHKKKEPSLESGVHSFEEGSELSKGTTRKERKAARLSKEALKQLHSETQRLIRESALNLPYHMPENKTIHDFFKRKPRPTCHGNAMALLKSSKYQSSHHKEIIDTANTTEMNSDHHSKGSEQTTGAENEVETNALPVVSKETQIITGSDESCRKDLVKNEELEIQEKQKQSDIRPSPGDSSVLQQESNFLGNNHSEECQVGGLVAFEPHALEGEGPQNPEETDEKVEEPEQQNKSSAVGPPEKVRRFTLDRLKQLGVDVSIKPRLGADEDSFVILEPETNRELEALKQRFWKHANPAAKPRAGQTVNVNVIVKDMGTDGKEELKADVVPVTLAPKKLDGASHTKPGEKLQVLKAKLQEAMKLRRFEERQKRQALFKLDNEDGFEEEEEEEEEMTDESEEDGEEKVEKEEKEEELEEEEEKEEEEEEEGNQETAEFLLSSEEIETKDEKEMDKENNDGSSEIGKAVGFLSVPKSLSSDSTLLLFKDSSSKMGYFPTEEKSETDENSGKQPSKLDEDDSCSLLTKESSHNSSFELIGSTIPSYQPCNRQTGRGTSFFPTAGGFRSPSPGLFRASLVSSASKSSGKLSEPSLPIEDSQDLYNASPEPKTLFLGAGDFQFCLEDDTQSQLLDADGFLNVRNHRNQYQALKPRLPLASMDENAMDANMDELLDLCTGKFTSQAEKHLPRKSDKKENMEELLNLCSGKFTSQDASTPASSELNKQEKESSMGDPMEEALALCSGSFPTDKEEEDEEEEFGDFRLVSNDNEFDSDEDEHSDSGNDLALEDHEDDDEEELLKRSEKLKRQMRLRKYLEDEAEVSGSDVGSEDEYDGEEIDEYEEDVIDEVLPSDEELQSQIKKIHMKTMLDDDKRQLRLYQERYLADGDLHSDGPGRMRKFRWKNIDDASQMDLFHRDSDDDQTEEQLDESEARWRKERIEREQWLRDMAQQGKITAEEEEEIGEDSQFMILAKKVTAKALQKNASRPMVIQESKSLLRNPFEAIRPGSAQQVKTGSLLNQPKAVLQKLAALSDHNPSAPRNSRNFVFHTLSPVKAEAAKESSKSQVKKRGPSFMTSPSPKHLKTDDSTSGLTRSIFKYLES
UniProt P12277: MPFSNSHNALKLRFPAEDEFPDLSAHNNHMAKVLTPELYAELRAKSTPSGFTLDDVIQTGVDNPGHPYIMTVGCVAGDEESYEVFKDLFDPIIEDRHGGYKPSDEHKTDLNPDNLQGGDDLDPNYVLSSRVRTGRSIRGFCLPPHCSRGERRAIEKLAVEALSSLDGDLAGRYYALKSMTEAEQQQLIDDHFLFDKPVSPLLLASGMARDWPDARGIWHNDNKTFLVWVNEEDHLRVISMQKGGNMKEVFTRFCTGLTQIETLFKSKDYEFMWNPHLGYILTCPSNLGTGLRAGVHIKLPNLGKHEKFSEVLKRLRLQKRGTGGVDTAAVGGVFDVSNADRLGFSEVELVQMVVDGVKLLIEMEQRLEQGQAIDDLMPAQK
UniProt Q5T1J5: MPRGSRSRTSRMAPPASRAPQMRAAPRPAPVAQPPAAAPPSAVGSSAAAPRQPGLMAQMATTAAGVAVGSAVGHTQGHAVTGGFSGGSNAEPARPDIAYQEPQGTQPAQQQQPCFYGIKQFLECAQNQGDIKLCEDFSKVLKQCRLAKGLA
UniProt Q14008: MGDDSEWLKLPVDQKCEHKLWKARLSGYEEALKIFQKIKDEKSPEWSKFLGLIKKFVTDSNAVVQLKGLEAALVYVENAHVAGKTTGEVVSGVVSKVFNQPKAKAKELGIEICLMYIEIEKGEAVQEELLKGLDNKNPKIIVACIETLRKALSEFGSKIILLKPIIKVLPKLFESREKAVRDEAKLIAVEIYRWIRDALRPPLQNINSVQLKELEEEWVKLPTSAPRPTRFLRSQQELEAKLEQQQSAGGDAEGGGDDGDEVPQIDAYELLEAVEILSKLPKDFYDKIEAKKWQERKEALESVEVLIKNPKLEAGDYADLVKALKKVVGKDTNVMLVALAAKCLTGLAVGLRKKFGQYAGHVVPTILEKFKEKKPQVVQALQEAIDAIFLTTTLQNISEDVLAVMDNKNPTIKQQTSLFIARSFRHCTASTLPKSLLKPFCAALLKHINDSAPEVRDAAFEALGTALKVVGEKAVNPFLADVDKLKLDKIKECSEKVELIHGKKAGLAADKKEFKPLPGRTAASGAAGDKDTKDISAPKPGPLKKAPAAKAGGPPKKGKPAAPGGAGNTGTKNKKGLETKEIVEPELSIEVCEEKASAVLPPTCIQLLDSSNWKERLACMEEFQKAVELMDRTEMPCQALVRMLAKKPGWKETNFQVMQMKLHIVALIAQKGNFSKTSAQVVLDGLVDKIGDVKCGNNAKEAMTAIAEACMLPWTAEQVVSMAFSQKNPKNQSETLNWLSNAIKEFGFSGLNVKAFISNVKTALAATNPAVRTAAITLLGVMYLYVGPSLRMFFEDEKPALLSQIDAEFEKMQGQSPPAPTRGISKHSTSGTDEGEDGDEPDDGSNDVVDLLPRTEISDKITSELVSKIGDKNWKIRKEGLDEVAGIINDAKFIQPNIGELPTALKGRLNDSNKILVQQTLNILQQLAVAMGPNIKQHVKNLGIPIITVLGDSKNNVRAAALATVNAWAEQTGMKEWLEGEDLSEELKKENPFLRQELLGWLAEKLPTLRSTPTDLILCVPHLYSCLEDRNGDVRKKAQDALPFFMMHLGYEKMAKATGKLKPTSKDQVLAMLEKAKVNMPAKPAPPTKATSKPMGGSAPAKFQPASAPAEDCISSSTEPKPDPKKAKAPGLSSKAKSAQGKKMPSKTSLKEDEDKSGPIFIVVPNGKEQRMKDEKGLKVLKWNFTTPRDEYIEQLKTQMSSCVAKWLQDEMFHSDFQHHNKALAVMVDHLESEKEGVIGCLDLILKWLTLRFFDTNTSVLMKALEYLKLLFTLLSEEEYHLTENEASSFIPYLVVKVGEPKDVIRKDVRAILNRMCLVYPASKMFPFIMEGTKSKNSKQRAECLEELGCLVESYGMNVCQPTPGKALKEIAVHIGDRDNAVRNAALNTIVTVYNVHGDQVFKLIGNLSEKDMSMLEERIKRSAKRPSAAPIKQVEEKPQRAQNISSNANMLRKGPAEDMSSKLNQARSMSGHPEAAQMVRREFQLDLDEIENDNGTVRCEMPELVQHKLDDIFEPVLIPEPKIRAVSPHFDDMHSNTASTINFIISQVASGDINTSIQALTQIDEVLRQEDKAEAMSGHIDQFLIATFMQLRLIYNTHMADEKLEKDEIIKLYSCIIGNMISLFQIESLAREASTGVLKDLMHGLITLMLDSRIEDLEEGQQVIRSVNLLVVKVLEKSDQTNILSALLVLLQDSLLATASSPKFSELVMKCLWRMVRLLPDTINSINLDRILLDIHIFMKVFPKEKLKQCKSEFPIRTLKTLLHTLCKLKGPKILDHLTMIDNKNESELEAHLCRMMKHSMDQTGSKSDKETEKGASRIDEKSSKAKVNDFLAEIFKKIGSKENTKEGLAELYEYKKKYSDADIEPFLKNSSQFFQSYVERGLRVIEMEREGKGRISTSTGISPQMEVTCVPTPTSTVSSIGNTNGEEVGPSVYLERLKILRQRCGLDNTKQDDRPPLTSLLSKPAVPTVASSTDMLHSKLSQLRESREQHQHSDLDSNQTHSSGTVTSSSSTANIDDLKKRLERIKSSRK
UniProt Q96NY7: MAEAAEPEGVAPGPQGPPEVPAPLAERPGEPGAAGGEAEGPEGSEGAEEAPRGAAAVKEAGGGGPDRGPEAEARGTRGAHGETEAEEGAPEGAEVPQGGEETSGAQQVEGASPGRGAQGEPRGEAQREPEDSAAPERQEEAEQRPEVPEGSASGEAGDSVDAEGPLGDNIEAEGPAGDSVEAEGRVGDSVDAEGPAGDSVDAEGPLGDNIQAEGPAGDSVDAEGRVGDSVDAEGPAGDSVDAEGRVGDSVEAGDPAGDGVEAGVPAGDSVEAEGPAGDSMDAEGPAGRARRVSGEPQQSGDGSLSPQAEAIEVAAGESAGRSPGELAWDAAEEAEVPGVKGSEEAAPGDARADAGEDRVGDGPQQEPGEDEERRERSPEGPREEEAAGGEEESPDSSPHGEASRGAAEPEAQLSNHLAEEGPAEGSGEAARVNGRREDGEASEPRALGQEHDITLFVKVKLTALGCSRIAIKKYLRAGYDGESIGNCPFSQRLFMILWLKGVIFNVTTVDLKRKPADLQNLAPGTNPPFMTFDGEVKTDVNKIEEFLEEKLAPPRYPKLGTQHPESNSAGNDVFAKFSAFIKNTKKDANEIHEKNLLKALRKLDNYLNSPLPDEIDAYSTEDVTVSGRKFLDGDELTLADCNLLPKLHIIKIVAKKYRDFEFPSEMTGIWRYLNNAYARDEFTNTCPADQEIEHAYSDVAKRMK
UniProt P06732: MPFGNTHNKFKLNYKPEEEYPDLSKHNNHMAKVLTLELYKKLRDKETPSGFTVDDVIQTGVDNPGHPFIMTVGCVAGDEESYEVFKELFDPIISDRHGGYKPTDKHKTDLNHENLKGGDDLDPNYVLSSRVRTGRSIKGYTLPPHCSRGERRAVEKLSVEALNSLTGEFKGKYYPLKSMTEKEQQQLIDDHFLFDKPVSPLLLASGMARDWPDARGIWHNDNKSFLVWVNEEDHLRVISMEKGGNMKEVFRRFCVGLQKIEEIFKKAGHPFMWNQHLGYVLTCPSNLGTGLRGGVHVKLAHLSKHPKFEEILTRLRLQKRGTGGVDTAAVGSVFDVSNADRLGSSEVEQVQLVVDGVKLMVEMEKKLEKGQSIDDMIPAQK
UniProt O15111: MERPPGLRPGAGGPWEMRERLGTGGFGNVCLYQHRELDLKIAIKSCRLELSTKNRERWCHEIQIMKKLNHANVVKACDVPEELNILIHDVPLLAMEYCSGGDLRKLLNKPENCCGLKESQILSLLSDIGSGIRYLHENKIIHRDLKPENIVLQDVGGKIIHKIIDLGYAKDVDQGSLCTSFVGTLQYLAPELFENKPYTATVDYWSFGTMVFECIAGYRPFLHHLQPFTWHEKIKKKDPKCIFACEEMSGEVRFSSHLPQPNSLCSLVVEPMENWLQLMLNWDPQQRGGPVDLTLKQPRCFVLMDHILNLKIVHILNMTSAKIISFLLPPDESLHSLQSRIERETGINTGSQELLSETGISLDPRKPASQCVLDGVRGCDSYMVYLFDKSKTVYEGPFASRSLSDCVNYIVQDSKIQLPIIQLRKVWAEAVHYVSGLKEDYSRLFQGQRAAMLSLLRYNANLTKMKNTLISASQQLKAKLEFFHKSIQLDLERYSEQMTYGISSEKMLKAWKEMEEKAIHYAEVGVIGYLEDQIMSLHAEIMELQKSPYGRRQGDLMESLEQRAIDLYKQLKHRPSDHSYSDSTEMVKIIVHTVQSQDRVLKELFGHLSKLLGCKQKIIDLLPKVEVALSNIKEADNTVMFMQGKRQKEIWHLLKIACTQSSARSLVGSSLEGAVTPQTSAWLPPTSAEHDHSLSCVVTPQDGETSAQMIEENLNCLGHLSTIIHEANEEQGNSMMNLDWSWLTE

Columns and labels:
Test in all cases: log2 fold change, soluble protein after heating vs DMSO (PISA); higher = thermal stabilisation; K562 lysate, 10 uM; active = over 0.2 and 3.5 SD of the protein, either way, in both replicates (recomputed)
vemurafenib = compound: CCCS(=O)(=O)Nc1ccc(F)c(C(=O)c2c[nH]c3ncc(-c4ccc(Cl)cc4)cc23)c1F [vemurafenib]
In short: (§1)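 K562 pellets were dounce-homogenised in PBS pH 7.4 with 1 mM MgCl2, and the crude extract at 1 mg/mL protein was treated with 10 μM compound for 30 min. Aliquots were heated for 3 min across 48°C-58°C, pooled, and brought to 0.5% NP-40 at 4°C; soluble protein was the supernatant after 21,000xg for 90 min. Soluble protein was quantified by TMTpro 16plex LC-MS/MS with channel sums equalised, and reported as log2 fold change in thermal stability against DMSO controls, with values from duplicates.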

[1] = compound: CCCS(=O)(=O)Nc1ccc(F)c(C(=O)c2c[nH]c3ncc(Cl)cc23)c1F
In short: as §1

barasertib = compound: CCN(CCCOc1ccc2c(Nc3cc(CC(=O)Nc4cccc(F)c4)[nH]n3)ncnc2c1)CCOP(=O)(O)O [barasertib]
In short: as §1

[2] = compound: CC[C@@H]1C(=O)N(C)c2cnc(Nc3ccc(C(=O)NC4CCN(C)CC4)cc3OC)nc2N1C1CCCC1
In short: as §1

volasertib = compound: CC[C@@H]1C(=O)N(C)c2cnc(Nc3ccc(C(=O)N[C@H]4CC[C@H](N5CCN(CC6CC6)CC5)CC4)cc3OC)nc2N1C(C)C [volasertib]
In short: as §1

[3] = compound: CCn1c(C(=O)N(C2CC2)C2CC2)cc2c3c(ncn3C)c(Nc3cc(C)n(C)n3)nc21
In short: as §1

[4] = compound: CCn1cc(-c2ccnc3[nH]c(-c4cccc(CN(C)C)c4)cc23)c(-c2ccc(NC(=O)N(C)C)cc2)n1
In short: as §1

[5] = compound: CN1CCC(CNc2ccc3ncc(-c4cccc(OC(F)(F)F)c4)n3n2)CC1
In short: as §1

saracatinib = compound: CN1CCN(CCOc2cc(OC3CCOCC3)c3c(Nc4c(Cl)ccc5c4OCO5)ncnc3c2)CC1 [saracatinib]
In short: as §1

sotrastaurin = compound: CN1CCN(c2nc(C3=C(c4c[nH]c5ccccc45)C(=O)NC3=O)c3ccccc3n2)CC1 [sotrastaurin]
In short: as §1

alvocidib = compound: CN1CC[C@H](c2c(O)cc(O)c3c(=O)cc(-c4ccccc4Cl)oc23)[C@H](O)C1 [alvocidib]
In short: as §1

Tubastatin A = compound: CN1CCc2c(c3ccccc3n2Cc2ccc(C(=O)NO)cc2)C1 [Tubastatin A]
In short: as §1

[6] = compound: CNC(=O)C1=CC=CC=C1NC2=NC(=NC=C2Cl)NC3=C(C=C(C=C3)N4CCOCC4)OC
In short: as §1

defactinib = compound: CNC(=O)c1ccc(Nc2ncc(C(F)(F)F)c(NCc3nccnc3N(C)S(C)(=O)=O)n2)cc1 [defactinib]
In short: as §1

[7] = compound: CNc1nc(-c2ccc3c(N)n[nH]c3c2)cc(N2C[C@@H](C(=O)NC3CCCCC3)CC[C@H]2C)n1
In short: as §1

encorafenib = compound: COC(=O)N[C@@H](C)CNc1nccc(-c2cn(C(C)C)nc2-c2cc(Cl)cc(NS(C)(=O)=O)c2F)n1 [encorafenib]
In short: as §1

[8] = compound: COC(=O)[C@H](CCSC)NC(=O)C1=C(C=C(C=C1)NC[C@H](CS)N)C2=CC=CC=C2
In short: as §1

alisertib = compound: COc1cc(Nc2ncc3c(n2)-c2ccc(Cl)cc2C(c2c(F)cccc2OC)=NC3)ccc1C(=O)O [alisertib]
In short: as §1

[9] = compound: COc1cc2nc(-c3cc(F)ccc3O)nc(N[C@@H]3CNC[C@H]3C(C)(C)O)c2cc1OC
In short: as §1

gefitinib = compound: COc1cc2ncnc(Nc3ccc(F)c(Cl)c3)c2cc1OCCCN1CCOCC1 [gefitinib]
In short: as §1

Measured: log2 fold change

CHMP1A (UniProt Q9HD42)
inactive: vemurafenib -0.012 | [1] 0.013 | barasertib -0.012 | [2] 0.052 | volasertib 0.039 | [3] 0.026 | [4] 0.009 | [5] 0.01 | saracatinib -0.021 | sotrastaurin 0.019 | alvocidib 0.004 | Tubastatin A 0.017 | [6] 0.026 | defactinib -0.003 | [7] 0.074 | encorafenib -0.004 | [8] -0.05 | alisertib -0.013 | [9] -0.017 | gefitinib 0.031

CLUH, A0A494C0R8
active: [4] 0.59
inactive: vemurafenib -0.11 | [1] 0.027 | barasertib -0.092 | [2] 0.097 | volasertib -0.005 | [3] 0 | [5] -0.047 | saracatinib 0.03 | sotrastaurin 0.051 | alvocidib 0.076 | Tubastatin A -0.08 | [6] -0.015 | defactinib -0.184 | [7] -0.049 | encorafenib -0.089 | [8] 0.054 | alisertib -0.05 | [9] 0.005 | gefitinib 0.138

CMTR1 (UniProt Q8N1G2)
inactive: vemurafenib -0.007 | [1] -0.003 | barasertib 0.018 | [2] -0.084 | volasertib -0.059 | [3] 0.024 | [4] 0 | [5] -0.027 | saracatinib -0.007 | sotrastaurin 0.048 | alvocidib -0.005 | Tubastatin A -0.066 | [6] 0.012 | defactinib 0.018 | [7] -0.035 | encorafenib 0.022 | [8] 0.052 | alisertib -0.003 | [9] 0 | gefitinib 0.022

CLSPN (UniProt Q9HAW4)
inactive: vemurafenib 0.033 | [1] -0.003 | barasertib -0.031 | [2] 0.074 | volasertib 0.029 | [3] -0.047 | [4] -0.068 | [5] 0.022 | saracatinib 0.001 | sotrastaurin -0.004 | alvocidib -0.033 | Tubastatin A -0.037 | [6] 0.041 | defactinib -0.012 | [7] 0.115 | encorafenib 0.09 | [8] -0.11 | alisertib 0.019 | [9] -0.013 | gefitinib 0.045

CHMP4C (UniProt Q96CF2)
inactive: vemurafenib -0.02 | [1] 0.001 | barasertib -0.021 | [2] 0.05 | volasertib 0.006 | [3] -0.04 | [4] 0.534 | [5] 0.06 | saracatinib 0 | sotrastaurin -0.042 | alvocidib -0.099 | Tubastatin A 0.039 | [6] 0.029 | defactinib 0.036 | [7] 0.01 | encorafenib 0.056 | [8] -0.036 | alisertib -0.016 | [9] 0.057 | gefitinib 0.001

CHCHD1 (UniProt Q96BP2)
active: [4] 1.08
inactive: vemurafenib 0.157 | [1] -0.025 | barasertib -0.002 | [2] 0.028 | volasertib -0.001 | [3] -0.075 | [5] -0.338 | saracatinib 0.032 | sotrastaurin 0.16 | alvocidib 0.494 | Tubastatin A 0.046 | [6] 0.028 | defactinib -0.033 | [7] 0.087 | encorafenib -0.018 | [8] -0.042 | alisertib 0.003 | [9] 0.023 | gefitinib 0.228

Taken from the results shown (4 entries):
CHMP1A (UniProt Q9HD42)
inactive: vemurafenib -0.012 | [1] 0.013 | barasertib -0.012 | [2] 0.052 | volasertib 0.039 | [3] 0.026 | [4] 0.009 | [5] 0.01 | saracatinib -0.021 | sotrastaurin 0.019 | alvocidib 0.004 | Tubastatin A 0.017 | [6] 0.026 | defactinib -0.003 | [7] 0.074 | encorafenib -0.004 | [8] -0.05 | alisertib -0.013 | [9] -0.017 | gefitinib 0.031

CLUH, A0A494C0R8
active: [4] 0.59
inactive: vemurafenib -0.11 | [1] 0.027 | barasertib -0.092 | [2] 0.097 | volasertib -0.005 | [3] 0 | [5] -0.047 | saracatinib 0.03 | sotrastaurin 0.051 | alvocidib 0.076 | Tubastatin A -0.08 | [6] -0.015 | defactinib -0.184 | [7] -0.049 | encorafenib -0.089 | [8] 0.054 | alisertib -0.05 | [9] 0.005 | gefitinib 0.138

CMTR1 (UniProt Q8N1G2)
inactive: vemurafenib -0.007 | [1] -0.003 | barasertib 0.018 | [2] -0.084 | volasertib -0.059 | [3] 0.024 | [4] 0 | [5] -0.027 | saracatinib -0.007 | sotrastaurin 0.048 | alvocidib -0.005 | Tubastatin A -0.066 | [6] 0.012 | defactinib 0.018 | [7] -0.035 | encorafenib 0.022 | [8] 0.052 | alisertib -0.003 | [9] 0 | gefitinib 0.022

CLSPN (UniProt Q9HAW4)
inactive: vemurafenib 0.033 | [1] -0.003 | barasertib -0.031 | [2] 0.074 | volasertib 0.029 | [3] -0.047 | [4] -0.068 | [5] 0.022 | saracatinib 0.001 | sotrastaurin -0.004 | alvocidib -0.033 | Tubastatin A -0.037 | [6] 0.041 | defactinib -0.012 | [7] 0.115 | encorafenib 0.09 | [8] -0.11 | alisertib 0.019 | [9] -0.013 | gefitinib 0.045

Continuation:

CKMT1A (UniProt P12532)
inactive: vemurafenib 0.052 | [1] 0.007 | barasertib 0.025 | [2] 0.05 | volasertib 0.005 | [3] -0.038 | [4] -0.015 | [5] 0.063 | saracatinib -0.013 | sotrastaurin 0.032 | alvocidib -0.005 | Tubastatin A 0.044 | [6] 0.011 | defactinib 0.053 | [7] 0.043 | encorafenib 0.001 | [8] -0.071 | alisertib -0.018 | [9] -0.034 | gefitinib -0.031

CKB (UniProt P12277)
inactive: vemurafenib -0.027 | [1] 0.008 | barasertib -0.018 | [2] -0.06 | volasertib -0.012 | [3] 0.012 | [4] 0.068 | [5] -0.021 | saracatinib 0.011 | sotrastaurin -0.011 | alvocidib 0.012 | Tubastatin A -0.04 | [6] -0.008 | defactinib 0.039 | [7] -0.011 | encorafenib -0.055 | [8] 0.076 | alisertib 0.026 | [9] -0.018 | gefitinib -0.013

CHCHD2P9 (UniProt Q5T1J5)
inactive: vemurafenib 0.08 | [1] -0.01 | barasertib -0.022 | [2] 0.113 | volasertib 0.014 | [3] -0.053 | [4] 0.048 | [5] 0.116 | saracatinib -0.061 | sotrastaurin 0.082 | alvocidib 0.026 | Tubastatin A 0.061 | [6] -0.01 | defactinib 0.108 | [7] 0.008 | encorafenib 0.021 | [8] -0.086 | alisertib -0.003 | [9] -0.007 | gefitinib 0.131

CKAP5 (UniProt Q14008)
inactive: vemurafenib -0.023 | [1] -0.013 | barasertib 0.003 | [2] -0.002 | volasertib -0.021 | [3] 0.022 | [4] -0.016 | [5] -0.033 | saracatinib 0.005 | sotrastaurin 0.025 | alvocidib 0.008 | Tubastatin A -0.076 | [6] 0.019 | defactinib 0.008 | [7] 0.003 | encorafenib 0.013 | [8] 0.074 | alisertib 0.012 | [9] 0.007 | gefitinib -0.005

CKMT2 (UniProt P17540)
inactive: vemurafenib 0.117 | [1] 0.021 | barasertib -0.011 | [2] 0.038 | volasertib 0.037 | [3] -0.035 | [4] 0.306 | [5] 0.159 | saracatinib -0.032 | sotrastaurin 0.022 | alvocidib -0.115 | Tubastatin A 0.053 | [6] 0.018 | defactinib -0.034 | [7] 0.116 | encorafenib 0.007 | [8] 0.013 | alisertib 0.056 | [9] 0.002 | gefitinib -0.019

CLIC6 (UniProt Q96NY7)
inactive: vemurafenib 0.029 | [1] 0.046 | barasertib -0.073 | [2] -0.017 | volasertib -0.045 | [3] 0.006 | [4] -0.037 | [5] 0.008 | saracatinib -0.02 | sotrastaurin 0.051 | alvocidib 0.03 | Tubastatin A -0.089 | [6] 0.032 | defactinib 0.01 | [7] -0.017 | encorafenib 0.02 | [8] 0.049 | [9] 0.043

CKM (UniProt P06732)
active: [4] -0.574
inactive: vemurafenib 0.072 | [1] -0.018 | barasertib -0.018 | [2] 0.086 | volasertib -0.084 | [3] -0.039 | [5] 0.17 | saracatinib -0.014 | sotrastaurin 0.086 | alvocidib -0.126 | Tubastatin A -0.091 | [6] -0.049 | defactinib -0.033 | [7] -0.037 | encorafenib 0.016 | [8] 0.026 | alisertib -0.015 | [9] 0.031 | gefitinib -0.065

CHMP7 (UniProt Q8WUX9)
inactive: vemurafenib -0.036 | [1] 0.018 | barasertib 0.029 | [2] 0.109 | volasertib 0.002 | [3] -0.001 | [4] -0.11 | [5] -0.012 | saracatinib 0.003 | sotrastaurin 0.061 | alvocidib -0.012 | Tubastatin A 0.038 | [6] 0.025 | defactinib 0.032 | [7] -0.001 | encorafenib 0.105 | [8] -0.009 | alisertib 0.023 | [9] -0.01 | gefitinib -0.013

CHUK (UniProt O15111)
inactive: vemurafenib 0.026 | [1] 0.001 | barasertib 0.059 | [2] -0.095 | volasertib -0.047 | [3] -0.045 | [4] 0.111 | [5] -0.097 | saracatinib 0.059 | sotrastaurin 0.017 | alvocidib 0.029 | Tubastatin A -0.203 | [6] 0.077 | defactinib 0.089 | [7] -0.039 | encorafenib -0.021 | [8] 0.121 | alisertib 0.018 | [9] 0.052 | gefitinib -0.06

CMPK2 (UniProt Q5EBM0)
inactive: vemurafenib 0.026 | [1] 0.048 | barasertib 0.155 | [2] 0.018 | volasertib 0.015 | [3] -0.03 | [4] -0.001 | [5] 0.007 | saracatinib 0.006 | sotrastaurin -0.019 | alvocidib -0.046 | Tubastatin A 0.005 | [6] 0.018 | defactinib 0.027 | [7] -0.006 | encorafenib 0.01 | [8] 0.028 | alisertib -0.026 | [9] 0.018 | gefitinib -0.022
